# Measured values reported in paper PMC8964759, “Exploring a blue-light-sensing transcription factor to double the peak productivity of oil in Nannochloropsis oceanica”.
# Target: T1, MBP-NobZIP77 (Nannochloropsis oceanica) (UniProt A0A8F2IEU3)
# T1 sequence (looked up, limits assumed): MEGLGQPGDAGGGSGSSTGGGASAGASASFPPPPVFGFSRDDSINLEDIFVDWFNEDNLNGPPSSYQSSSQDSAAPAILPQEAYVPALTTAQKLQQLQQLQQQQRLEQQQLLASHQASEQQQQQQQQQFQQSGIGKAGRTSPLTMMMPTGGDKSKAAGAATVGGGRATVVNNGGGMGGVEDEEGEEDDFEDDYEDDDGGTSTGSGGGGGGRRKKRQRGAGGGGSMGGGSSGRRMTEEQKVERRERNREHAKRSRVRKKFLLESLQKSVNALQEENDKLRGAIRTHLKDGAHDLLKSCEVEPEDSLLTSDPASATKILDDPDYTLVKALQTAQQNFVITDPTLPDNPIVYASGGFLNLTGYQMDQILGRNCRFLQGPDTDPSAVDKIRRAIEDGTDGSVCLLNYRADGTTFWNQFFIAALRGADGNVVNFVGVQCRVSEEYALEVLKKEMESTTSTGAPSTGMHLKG
# Experiment: EMSA
# Conditions: lowest protein concentration with visible shift (not a Kd), 5 nM probe, LightShift Chemiluminescent EMSA kit binding buffer (composition, salt and pH not stated), 30 min, recombinant protein, protein details: MBP (pMAL-p4X), label: 5' biotin
sequence,measurement,setting,value
TATGCTCACGTGCGCACACGTACCCCACTATGCTCACGTGCGCACACGTACCCCAC (double strand) [pNoDGAT2B probe (g6725)],binding signal,continuous blue light (450 nm),1.5 mM
same,binding signal,continuous white light,0.75 mM

# Construct, isoform or probe ends are uncertain for at least one entry. Whether high values mean tight binding is not given here for every scale. Where a protein sequence is shown, tags need not be part of it.
